# In the supplement of paper PMC10849652:
# Amino acid sequences for entries named in this document (tags omitted). A change or cut given only in a name is not applied to a line headed by its entry.
# UniProt P40763, whole entry, looked up: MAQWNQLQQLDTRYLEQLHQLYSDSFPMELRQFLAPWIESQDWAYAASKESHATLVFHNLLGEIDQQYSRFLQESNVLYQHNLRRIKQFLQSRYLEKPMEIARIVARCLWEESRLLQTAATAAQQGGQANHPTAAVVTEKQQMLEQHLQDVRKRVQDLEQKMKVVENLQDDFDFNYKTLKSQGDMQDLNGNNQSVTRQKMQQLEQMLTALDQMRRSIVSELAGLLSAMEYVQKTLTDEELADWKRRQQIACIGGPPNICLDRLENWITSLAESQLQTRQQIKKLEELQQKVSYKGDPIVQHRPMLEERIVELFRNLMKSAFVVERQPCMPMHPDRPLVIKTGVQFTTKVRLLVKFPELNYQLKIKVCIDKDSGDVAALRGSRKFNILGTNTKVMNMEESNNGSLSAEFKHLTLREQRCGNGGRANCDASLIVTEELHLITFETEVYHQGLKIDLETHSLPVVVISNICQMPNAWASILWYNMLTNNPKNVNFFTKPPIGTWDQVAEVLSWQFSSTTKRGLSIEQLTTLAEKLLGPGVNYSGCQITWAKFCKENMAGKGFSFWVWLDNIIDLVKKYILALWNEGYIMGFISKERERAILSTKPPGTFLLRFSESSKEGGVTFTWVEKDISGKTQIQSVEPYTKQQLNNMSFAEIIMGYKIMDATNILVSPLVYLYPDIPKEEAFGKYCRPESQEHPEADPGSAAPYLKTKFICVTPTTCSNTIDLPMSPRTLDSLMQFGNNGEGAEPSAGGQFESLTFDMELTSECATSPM
# UniProt Q8N5C6: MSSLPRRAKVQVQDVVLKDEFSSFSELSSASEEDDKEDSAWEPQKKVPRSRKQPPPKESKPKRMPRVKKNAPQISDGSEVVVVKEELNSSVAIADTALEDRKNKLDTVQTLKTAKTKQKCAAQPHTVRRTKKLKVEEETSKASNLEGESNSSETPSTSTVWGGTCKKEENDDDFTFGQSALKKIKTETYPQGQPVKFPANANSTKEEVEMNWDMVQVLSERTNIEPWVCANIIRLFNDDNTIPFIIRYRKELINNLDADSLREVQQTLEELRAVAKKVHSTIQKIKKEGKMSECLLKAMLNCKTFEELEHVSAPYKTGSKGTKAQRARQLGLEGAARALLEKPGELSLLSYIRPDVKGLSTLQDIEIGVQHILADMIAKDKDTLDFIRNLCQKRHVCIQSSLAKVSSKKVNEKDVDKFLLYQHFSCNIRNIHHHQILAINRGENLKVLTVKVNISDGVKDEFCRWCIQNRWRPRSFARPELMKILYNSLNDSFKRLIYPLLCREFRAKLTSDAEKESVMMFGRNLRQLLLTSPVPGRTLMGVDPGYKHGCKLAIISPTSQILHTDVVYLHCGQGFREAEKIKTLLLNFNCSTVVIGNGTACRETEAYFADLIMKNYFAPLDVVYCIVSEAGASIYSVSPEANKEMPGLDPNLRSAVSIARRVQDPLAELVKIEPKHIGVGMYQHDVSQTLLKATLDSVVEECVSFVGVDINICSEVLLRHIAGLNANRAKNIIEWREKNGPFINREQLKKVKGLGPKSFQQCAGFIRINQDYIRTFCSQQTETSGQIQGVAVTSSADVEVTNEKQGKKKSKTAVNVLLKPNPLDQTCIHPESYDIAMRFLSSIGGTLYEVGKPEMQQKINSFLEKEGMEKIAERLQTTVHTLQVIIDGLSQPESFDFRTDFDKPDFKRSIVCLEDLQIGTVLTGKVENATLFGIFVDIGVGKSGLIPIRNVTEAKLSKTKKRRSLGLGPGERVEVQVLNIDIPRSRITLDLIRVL
# UniProt Q9NYA1, whole entry, looked up: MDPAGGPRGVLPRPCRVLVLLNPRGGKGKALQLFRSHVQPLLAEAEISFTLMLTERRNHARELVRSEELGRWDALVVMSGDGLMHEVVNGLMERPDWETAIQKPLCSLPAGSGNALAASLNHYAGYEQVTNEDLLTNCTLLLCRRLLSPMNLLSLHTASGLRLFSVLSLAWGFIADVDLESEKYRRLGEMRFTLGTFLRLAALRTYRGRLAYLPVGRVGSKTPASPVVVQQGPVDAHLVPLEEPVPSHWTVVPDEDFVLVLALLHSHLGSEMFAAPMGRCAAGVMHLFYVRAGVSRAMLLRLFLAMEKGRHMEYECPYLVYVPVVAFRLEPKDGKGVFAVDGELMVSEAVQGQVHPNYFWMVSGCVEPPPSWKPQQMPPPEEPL
# UniProt O76061, whole entry, looked up: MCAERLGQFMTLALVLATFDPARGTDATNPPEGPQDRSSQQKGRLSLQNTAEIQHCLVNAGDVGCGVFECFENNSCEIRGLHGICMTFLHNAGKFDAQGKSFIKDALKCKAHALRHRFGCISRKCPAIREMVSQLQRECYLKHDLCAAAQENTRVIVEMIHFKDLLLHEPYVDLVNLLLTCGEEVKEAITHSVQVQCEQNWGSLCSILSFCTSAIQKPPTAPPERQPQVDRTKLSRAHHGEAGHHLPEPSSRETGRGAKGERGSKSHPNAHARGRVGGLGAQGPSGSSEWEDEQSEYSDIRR
# UniProt Q08945, whole entry, looked up: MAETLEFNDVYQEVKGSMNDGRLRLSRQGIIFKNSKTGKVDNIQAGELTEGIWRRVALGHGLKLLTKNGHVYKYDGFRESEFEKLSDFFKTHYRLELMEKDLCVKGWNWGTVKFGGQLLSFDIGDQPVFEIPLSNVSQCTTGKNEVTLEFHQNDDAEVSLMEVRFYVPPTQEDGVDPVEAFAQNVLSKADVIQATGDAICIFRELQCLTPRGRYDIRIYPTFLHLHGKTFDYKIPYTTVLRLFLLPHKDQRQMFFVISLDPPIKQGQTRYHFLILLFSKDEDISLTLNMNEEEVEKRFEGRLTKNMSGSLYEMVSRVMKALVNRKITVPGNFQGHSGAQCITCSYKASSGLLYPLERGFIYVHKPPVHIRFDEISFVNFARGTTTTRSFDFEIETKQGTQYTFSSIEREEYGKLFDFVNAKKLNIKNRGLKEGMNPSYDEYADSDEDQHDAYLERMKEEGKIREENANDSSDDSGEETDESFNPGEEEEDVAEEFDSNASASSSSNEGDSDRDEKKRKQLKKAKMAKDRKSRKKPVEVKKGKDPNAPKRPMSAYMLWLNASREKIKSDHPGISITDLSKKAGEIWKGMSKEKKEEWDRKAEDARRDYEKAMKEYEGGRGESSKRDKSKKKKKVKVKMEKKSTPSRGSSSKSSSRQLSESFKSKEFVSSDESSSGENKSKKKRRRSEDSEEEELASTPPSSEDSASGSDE
# UniProt Q96EA4: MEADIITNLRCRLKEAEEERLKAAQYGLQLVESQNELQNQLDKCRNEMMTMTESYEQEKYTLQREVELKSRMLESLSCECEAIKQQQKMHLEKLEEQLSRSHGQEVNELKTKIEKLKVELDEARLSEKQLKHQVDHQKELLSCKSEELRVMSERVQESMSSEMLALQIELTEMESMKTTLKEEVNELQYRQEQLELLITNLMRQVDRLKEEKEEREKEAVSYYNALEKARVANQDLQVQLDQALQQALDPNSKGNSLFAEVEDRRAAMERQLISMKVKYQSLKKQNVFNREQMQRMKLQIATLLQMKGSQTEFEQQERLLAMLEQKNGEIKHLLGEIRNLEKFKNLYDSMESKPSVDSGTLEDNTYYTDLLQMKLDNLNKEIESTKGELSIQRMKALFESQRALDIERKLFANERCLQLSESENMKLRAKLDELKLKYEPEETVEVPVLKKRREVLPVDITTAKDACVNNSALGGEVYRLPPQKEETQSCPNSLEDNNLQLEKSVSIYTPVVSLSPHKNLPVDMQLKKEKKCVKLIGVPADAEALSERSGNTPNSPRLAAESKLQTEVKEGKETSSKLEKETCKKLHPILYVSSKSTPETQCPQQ
# UniProt Q8IZP2: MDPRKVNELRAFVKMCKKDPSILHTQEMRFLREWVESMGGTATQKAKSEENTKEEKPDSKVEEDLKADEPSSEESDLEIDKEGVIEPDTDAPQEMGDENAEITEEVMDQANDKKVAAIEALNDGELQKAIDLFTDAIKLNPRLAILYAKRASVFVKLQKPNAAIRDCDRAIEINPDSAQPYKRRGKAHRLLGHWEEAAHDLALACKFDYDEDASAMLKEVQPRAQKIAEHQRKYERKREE
# UniProt P81877: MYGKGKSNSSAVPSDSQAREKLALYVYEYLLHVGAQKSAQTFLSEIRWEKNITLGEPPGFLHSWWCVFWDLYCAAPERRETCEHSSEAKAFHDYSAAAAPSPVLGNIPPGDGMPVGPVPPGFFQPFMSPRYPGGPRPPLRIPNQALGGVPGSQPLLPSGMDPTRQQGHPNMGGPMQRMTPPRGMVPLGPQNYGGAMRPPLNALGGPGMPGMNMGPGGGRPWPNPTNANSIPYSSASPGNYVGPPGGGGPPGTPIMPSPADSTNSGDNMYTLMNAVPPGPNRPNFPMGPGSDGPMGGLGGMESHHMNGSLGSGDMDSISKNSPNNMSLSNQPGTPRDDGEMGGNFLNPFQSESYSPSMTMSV
# UniProt Q5T280: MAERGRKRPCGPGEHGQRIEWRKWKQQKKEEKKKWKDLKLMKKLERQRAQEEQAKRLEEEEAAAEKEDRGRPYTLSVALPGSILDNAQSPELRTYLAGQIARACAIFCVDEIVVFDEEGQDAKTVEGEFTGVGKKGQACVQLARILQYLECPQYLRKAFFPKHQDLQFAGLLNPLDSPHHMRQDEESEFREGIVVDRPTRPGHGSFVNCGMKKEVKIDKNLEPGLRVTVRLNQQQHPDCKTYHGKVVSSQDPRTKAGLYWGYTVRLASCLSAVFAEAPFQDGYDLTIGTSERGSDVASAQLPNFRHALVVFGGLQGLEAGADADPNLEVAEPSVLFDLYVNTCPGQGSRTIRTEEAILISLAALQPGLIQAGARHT
# UniProt P10124: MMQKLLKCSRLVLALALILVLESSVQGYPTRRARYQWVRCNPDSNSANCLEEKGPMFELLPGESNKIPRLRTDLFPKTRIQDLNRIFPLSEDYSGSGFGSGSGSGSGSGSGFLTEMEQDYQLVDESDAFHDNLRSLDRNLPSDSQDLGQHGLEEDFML
# UniProt Q7Z699: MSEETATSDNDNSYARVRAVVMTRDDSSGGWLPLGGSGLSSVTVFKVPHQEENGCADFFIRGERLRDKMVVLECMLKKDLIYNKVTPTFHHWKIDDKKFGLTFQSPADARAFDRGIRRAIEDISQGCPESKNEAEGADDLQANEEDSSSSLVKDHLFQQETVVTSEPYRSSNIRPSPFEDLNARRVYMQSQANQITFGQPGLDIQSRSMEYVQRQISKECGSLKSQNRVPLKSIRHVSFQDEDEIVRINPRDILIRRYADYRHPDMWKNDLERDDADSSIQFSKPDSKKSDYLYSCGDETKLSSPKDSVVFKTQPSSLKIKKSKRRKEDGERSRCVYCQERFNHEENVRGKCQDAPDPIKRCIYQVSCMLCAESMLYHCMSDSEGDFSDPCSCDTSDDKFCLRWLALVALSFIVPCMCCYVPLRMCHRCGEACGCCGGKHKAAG
# UniProt Q15532, whole entry, looked up: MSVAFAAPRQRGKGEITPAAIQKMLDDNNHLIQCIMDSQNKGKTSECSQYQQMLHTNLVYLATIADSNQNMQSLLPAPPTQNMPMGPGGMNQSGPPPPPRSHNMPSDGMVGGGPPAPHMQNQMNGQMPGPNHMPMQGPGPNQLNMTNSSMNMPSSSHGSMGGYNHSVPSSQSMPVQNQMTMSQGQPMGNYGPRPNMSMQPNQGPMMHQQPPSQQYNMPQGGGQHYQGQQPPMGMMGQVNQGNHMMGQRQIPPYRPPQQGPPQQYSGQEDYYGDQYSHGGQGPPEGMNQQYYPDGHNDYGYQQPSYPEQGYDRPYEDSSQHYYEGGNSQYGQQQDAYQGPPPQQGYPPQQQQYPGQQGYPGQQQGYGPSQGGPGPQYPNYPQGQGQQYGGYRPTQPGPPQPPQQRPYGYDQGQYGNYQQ
# UniProt Q9BVQ7: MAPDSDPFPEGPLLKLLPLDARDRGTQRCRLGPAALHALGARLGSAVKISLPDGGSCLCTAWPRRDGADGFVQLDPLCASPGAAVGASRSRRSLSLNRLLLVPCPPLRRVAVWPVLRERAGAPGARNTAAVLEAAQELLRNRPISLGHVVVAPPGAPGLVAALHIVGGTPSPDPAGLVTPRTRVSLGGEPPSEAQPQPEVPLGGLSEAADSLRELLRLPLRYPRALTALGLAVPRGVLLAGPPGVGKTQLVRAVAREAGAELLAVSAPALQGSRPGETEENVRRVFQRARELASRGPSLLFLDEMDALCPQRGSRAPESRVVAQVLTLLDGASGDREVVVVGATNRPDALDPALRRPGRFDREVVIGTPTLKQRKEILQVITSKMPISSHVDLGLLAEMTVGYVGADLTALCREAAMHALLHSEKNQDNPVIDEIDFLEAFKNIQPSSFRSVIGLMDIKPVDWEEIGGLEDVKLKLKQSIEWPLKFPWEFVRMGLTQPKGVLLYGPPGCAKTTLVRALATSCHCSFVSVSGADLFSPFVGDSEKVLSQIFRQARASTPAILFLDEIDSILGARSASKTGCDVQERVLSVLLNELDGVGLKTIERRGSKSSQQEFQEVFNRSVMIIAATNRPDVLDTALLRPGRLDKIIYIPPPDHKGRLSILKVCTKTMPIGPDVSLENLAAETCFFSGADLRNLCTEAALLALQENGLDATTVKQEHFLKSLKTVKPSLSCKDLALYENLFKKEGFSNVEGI
# Some of the results follow.
# What was measured:
# Assay in all cases: log2 fold change, soluble protein after heating vs DMSO (PISA); higher = thermal stabilisation; K562 lysate, 10 uM; active = over 0.2 and 3.5 SD of the protein, either way, in both replicates (recomputed)
# [1] = compound: C#Cc1cccc(Nc2ncnc3cc(OCCOC)c(OCCOC)cc23)c1 [erlotinib]
# Summary of the method: (§1)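 The values are log-two fold changes in thermal stability compared with solvent controls and come from duplicates. They were obtained by TMTpro 16plex LC-MS/MS, with channel sums equalised, on the supernatant after 21,000xg for 90 min. That supernatant came from crude K562 extract at 1 mg/mL protein treated with 10 μM compound for 30 min, heated for 3 min across 48°C-58°C, pooled and brought to 0.5% NP-40 at 4°C.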
# [2] = compound: C/C(=N\NC(=O)C1=CC(=CC=C1)S(=O)(=O)N2CCOCC2)/C3=C(C=CC(=C3)Cl)O
# Summary of the method: as §1
# [3] = compound: C1=CC(=CC=C1C2=NC3=C(N2)C=C(C=C3)C(=O)N)OC4=CC=C(C=C4)Cl
# Summary of the method: as §1
# [4] = compound: C1=CC2=C(C=CC(=C2)/C=C\3/C(=O)NC(=NCC4=CC=CS4)S3)N=C1
# Summary of the method: as §1
# [5] = compound: C1=CC2=NC=CN=C2C=C1/C=C/3\C(=O)NC(=O)S3
# Summary of the method: as §1
# [6] = compound: C1=CC=C(C=C1)C2=NC(=C(N2)C3=CC=NC=C3)C4=CC(=C(C=C4)Cl)O
# Summary of the method: as §1
# [7] = compound: C1=CC=C2C(=C1)C3=NNC4=CC=CC(=C43)C2=O
# Summary of the method: as §1
# [8] = compound: C1CCN(C1)C(=O)NC2=CC=CC(=C2)NC3=NC=C(C(=N3)NCCC4=CN=CN4)Br
# Summary of the method: as §1
# [9] = compound: C1CN(CCC1(CC2=CC=C(C=C2)Cl)N)C3=NC=NC4=C3C=CN4
# Summary of the method: as §1
# [10] = compound: C1COCCN1CCN2C3=CC=CC=C3N=C2NC(=O)C4=CC(=CC=C4)[N+](=O)[O-] [IRAK-1-4 Inhibitor I]
# Summary of the method: as §1
# [11] = compound: C=CC(=O)N1CCC[C@@H](n2nc(-c3ccc(Oc4ccccc4)cc3)c3c(N)ncnc32)C1 [ibrutinib]
# Summary of the method: as §1
# [12] = compound: CC(=O)c1cnc2ccc(-c3cc(Cl)c(O)c(Cl)c3)nc2c1N[C@H]1CC[C@H](CN(C)C)CC1
# Summary of the method: as §1
# [13] = compound: CC(C)(C)Cn1c(N)nc2ccc(-c3[nH]c(C(C)(C)C)nc3-c3ccc(F)cc3)nc21 [ralimetinib]
# Summary of the method: as §1
# [14] = compound: CC(C)(O)CC(=O)NCCn1ccc2ncnc(Nc3ccc(Oc4cccc(C(F)(F)F)c4)c(Cl)c3)c21
# Summary of the method: as §1
# [15] = compound: CC(C)C1=C2N=C(C=C(N2N=C1)NCC3=CC=CC=C3)NCCCCCCN
# Summary of the method: as §1
# [16] = compound: CC1=C(C(CC(=O)N1)C2=CC=C(C=C2)C(F)(F)F)C(=O)NC3=C(C=C4C(=C3)C=NN4)F
# Summary of the method: as §1
# [17] = compound: CC1=C(C2=C(C=C1)C(=O)C3=CC=CC=C3N2CCCN)C
# Summary of the method: as §1
# [18] = compound: CC1=C(C=C(C=C1)NC(=O)C2=CC(=CC=C2)C(C)(C)C#N)NC3=CC4=C(C=C3)N=CN(C4=O)C
# Summary of the method: as §1
# [19] = compound: CC1=C(C=C(C=C1)NC(=O)C2=CC(=CC=C2)N(C)C)NC(=O)C3=CC=C(C=C3)O
# Summary of the method: as §1
# [20] = compound: CC1=CC=C(C=C1)SC2=C3C=C(SC3=CN=C2)C(=O)N
# Summary of the method: as §1
Target,log2 fold change [1],log2 fold change [2],log2 fold change [3],log2 fold change [4],log2 fold change [5],log2 fold change [6],log2 fold change [7],log2 fold change [8],log2 fold change [9],log2 fold change [10],log2 fold change [11],log2 fold change [12],log2 fold change [13],log2 fold change [14],log2 fold change [15],log2 fold change [16],log2 fold change [17],log2 fold change [18],log2 fold change [19],log2 fold change [20]
STAT3 isoform 3 (UniProt P40763),inactive: 0.042,inactive: -0.312,inactive: -0.191,inactive: -0.008,inactive: -0.012,inactive: -0.036,inactive: 0.144,inactive: 0.022,inactive: -0.152,inactive: -0.092,inactive: -0.123,inactive: 0.022,inactive: 0.047,inactive: -0.071,inactive: -0.117,inactive: -0.012,inactive: -0.056,inactive: 0.011,inactive: -0.049,inactive: 0.013
SRBD1 (UniProt Q8N5C6),inactive: 0.048,inactive: 0.263,inactive: 0.072,inactive: -0.032,inactive: -0.017,inactive: 0.016,inactive: -0.217,inactive: -0.014,inactive: -0.023,inactive: -0.016,inactive: -0.057,inactive: -0.012,inactive: 0.02,inactive: -0.094,inactive: 0,inactive: -0.05,inactive: -0.057,inactive: 0.041,inactive: -0.022,inactive: 0.056
SPHK1 isoform 2 (UniProt Q9NYA1),inactive: -0.055,inactive: -0.462,inactive: -0.059,inactive: 0.038,inactive: 0.034,inactive: -0.097,inactive: -0.066,inactive: 0.016,inactive: 0.038,inactive: 0.018,inactive: -0.088,inactive: 0.029,inactive: 0.124,inactive: 0.061,inactive: 0.021,inactive: 0.041,inactive: 0.041,active: -0.276,inactive: -0.061,inactive: -0.036
STARD9 (UniProt Q9P2P6),inactive: 0,inactive: -0.26,inactive: -0.055,inactive: -0.064,–,inactive: 0.046,inactive: -0.033,inactive: 0.141,inactive: 0.157,inactive: -0.004,–,inactive: 0.033,inactive: 0.11,inactive: -0.144,inactive: 0.05,inactive: 0.031,inactive: 0.014,inactive: 0.051,inactive: 0.015,inactive: -0.054
STC2 (UniProt O76061),inactive: -0.005,inactive: -0.264,inactive: -0.158,inactive: 0.046,–,inactive: 0.099,inactive: 0.257,inactive: -0.031,inactive: 0.052,inactive: 0.085,–,inactive: 0.219,inactive: -0.049,inactive: 0.016,inactive: -0.015,inactive: -0.016,inactive: -0.075,inactive: -0.024,inactive: 0.041,inactive: -0.022
SSRP1 (UniProt Q08945),inactive: -0.024,inactive: -0.021,inactive: 0,inactive: 0.01,inactive: -0.026,inactive: -0.02,inactive: 0.009,inactive: 0.021,inactive: -0.017,inactive: -0.03,inactive: -0.003,inactive: -0.001,inactive: 0.031,inactive: 0.034,inactive: -0.017,inactive: -0.022,inactive: -0.071,inactive: 0.001,inactive: 0.026,inactive: 0.009
SPDL1 (UniProt Q96EA4),inactive: -0.01,inactive: -0.152,inactive: 0.026,inactive: 0.015,inactive: -0.01,inactive: -0.006,inactive: -0.014,inactive: -0.041,inactive: -0.033,inactive: 0.013,inactive: 0.083,inactive: 0.002,inactive: 0.002,inactive: -0.017,inactive: 0.029,inactive: -0.014,inactive: 0.013,inactive: -0.001,inactive: -0.01,inactive: -0.002
SRC isoform 2 (UniProt P12931),inactive: -0.073,–,inactive: 0.028,–,inactive: 0.102,inactive: -0.063,–,inactive: -0.018,inactive: -0.069,inactive: 0.034,–,inactive: -0.061,inactive: -0.035,inactive: 0.075,inactive: 0.052,–,inactive: 0.07,–,inactive: 0.042,inactive: 0
ST13P4 (UniProt Q8IZP2),inactive: 0.194,inactive: -0.159,inactive: 0.129,inactive: -0.097,–,inactive: 0.005,inactive: -0.051,–,–,inactive: 0.042,–,–,inactive: 0.091,inactive: -0.099,inactive: -0.07,–,–,–,inactive: 0.042,–
STAM (UniProt A6NMU3),inactive: 0.021,inactive: -0.03,inactive: -0.003,inactive: -0.127,–,inactive: 0.08,inactive: 0.001,inactive: -0.034,inactive: 0.035,inactive: -0.219,–,inactive: -0.011,inactive: -0.026,inactive: -0.006,inactive: -0.003,–,inactive: 0.122,inactive: 0.011,inactive: -0.009,inactive: -0.08
SPTAN1 (UniProt Q13813),inactive: -0.014,inactive: 0.019,inactive: 0.001,inactive: -0.002,inactive: -0.005,inactive: 0.009,inactive: -0.012,inactive: -0.013,inactive: -0.006,inactive: -0.003,inactive: 0.034,inactive: 0.005,inactive: 0.017,inactive: -0.007,inactive: -0.029,inactive: -0.013,inactive: 0.001,inactive: 0,inactive: 0.011,inactive: -0.012
SSBP2 (UniProt P81877),inactive: -0.076,inactive: 0.18,inactive: -0.046,inactive: -0.087,–,inactive: -0.075,inactive: -0.057,inactive: 0.034,inactive: 0.303,inactive: 0.127,–,–,inactive: -0.081,inactive: -0.275,inactive: 0.047,–,inactive: -0.095,inactive: 0.128,inactive: 0.045,–
SPOUT1 (UniProt Q5T280),inactive: 0.03,inactive: 0.049,inactive: 0.151,inactive: 0.021,–,inactive: -0.042,inactive: -0.038,inactive: -0.027,inactive: -0.038,inactive: 0.046,–,inactive: -0.052,inactive: 0.03,inactive: -0.032,inactive: 0.074,inactive: -0.045,inactive: -0.023,–,inactive: 0.092,inactive: 0.029
SRGN (UniProt P10124),inactive: -0.034,inactive: 0.023,inactive: 0.051,inactive: -0.019,inactive: 0.05,inactive: 0.051,inactive: -0.069,inactive: 0.065,inactive: -0.139,inactive: 0.013,inactive: 0.109,inactive: 0.084,inactive: 0.001,inactive: -0.159,inactive: -0.018,–,inactive: -0.079,inactive: 0.104,inactive: -0.064,inactive: -0.064
SPRED1 (UniProt Q7Z699),inactive: 0.05,–,inactive: -0.026,–,inactive: -0.043,inactive: -0.014,–,inactive: -0.173,inactive: 0.025,inactive: 0.043,inactive: 0.038,inactive: -0.026,inactive: -0.002,inactive: 0.017,inactive: 0.078,–,inactive: -0.088,–,inactive: -0.104,inactive: -0.024
SPICE1 (UniProt Q8N0Z3),inactive: 0.163,inactive: -0.022,inactive: 0.178,inactive: 0.025,–,–,inactive: 0.285,inactive: 0.011,inactive: -0.114,–,–,–,–,–,inactive: 0.113,inactive: -0.332,–,–,–,–
SS18 (UniProt Q15532),inactive: 0.051,inactive: -0.027,inactive: 0.01,inactive: 0.11,–,inactive: 0.022,inactive: 0.083,inactive: 0.002,inactive: 0.202,inactive: -0.029,–,inactive: -0.098,inactive: 0.025,inactive: -0.035,inactive: -0.012,inactive: -0.125,inactive: -0.061,inactive: 0.117,inactive: -0.022,inactive: 0.077
SPATA5L1 (UniProt Q9BVQ7),inactive: 0.09,inactive: -0.053,inactive: -0.017,inactive: 0.044,inactive: 0.004,inactive: 0.069,inactive: 0.01,inactive: 0.027,inactive: 0.032,inactive: 0.015,inactive: -0.007,inactive: 0.02,inactive: 0.037,inactive: -0.054,inactive: 0.018,inactive: -0.004,inactive: -0.052,inactive: -0.007,inactive: 0.026,inactive: -0.008

# Whole records from above. Order of values: log2 fold change [1]	log2 fold change [2]	log2 fold change [3]	log2 fold change [4]	log2 fold change [5]	log2 fold change [6]	log2 fold change [7]	log2 fold change [8]	log2 fold change [9]	log2 fold change [10]	log2 fold change [11]	log2 fold change [12]	log2 fold change [13]	log2 fold change [14]	log2 fold change [15]	log2 fold change [16]	log2 fold change [17]	log2 fold change [18]	log2 fold change [19]	log2 fold change [20]
# SPRED1 (UniProt Q7Z699) in the list: inactive: 0.05	–	inactive: -0.026	–	inactive: -0.043	inactive: -0.014	–	inactive: -0.173	inactive: 0.025	inactive: 0.043	inactive: 0.038	inactive: -0.026	inactive: -0.002	inactive: 0.017	inactive: 0.078	–	inactive: -0.088	–	inactive: -0.104	inactive: -0.024
# SRGN (UniProt P10124) in the list: inactive: -0.034	inactive: 0.023	inactive: 0.051	inactive: -0.019	inactive: 0.05	inactive: 0.051	inactive: -0.069	inactive: 0.065	inactive: -0.139	inactive: 0.013	inactive: 0.109	inactive: 0.084	inactive: 0.001	inactive: -0.159	inactive: -0.018	–	inactive: -0.079	inactive: 0.104	inactive: -0.064	inactive: -0.064
